This note sets out measurements from the supplement of paper PMC3334620.

Whole data set: some 33,000 sequences, median “E-score (-0.5 to 0.5)” near -0.015, cut for the highest 2% near 0.3. The list shows a part of the results.

This experiment has as its target T1, Abf1 (UniProt P14164).
T1 sequence: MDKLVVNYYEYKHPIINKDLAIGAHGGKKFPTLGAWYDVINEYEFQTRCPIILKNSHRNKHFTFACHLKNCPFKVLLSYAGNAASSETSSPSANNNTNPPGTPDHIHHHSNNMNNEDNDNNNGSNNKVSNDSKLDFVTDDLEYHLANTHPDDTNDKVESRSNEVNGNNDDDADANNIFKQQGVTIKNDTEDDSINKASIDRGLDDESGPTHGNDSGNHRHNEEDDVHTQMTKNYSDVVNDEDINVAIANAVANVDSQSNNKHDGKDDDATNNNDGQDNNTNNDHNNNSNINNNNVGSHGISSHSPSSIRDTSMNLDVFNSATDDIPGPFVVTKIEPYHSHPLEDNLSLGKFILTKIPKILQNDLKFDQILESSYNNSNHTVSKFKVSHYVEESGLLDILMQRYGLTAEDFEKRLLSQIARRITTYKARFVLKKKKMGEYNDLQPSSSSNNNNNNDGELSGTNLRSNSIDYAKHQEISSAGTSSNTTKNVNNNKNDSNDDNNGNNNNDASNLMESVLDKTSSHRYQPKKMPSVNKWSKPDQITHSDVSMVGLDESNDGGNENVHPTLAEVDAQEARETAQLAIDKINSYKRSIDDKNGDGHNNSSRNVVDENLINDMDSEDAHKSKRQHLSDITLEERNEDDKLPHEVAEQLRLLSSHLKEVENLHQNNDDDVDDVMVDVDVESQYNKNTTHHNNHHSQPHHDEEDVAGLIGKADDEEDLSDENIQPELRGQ
Nature of the experiment: PBM E-score (8-mer binding enrichment) (E-score (-0.5 to 0.5)); higher = stronger / more preferred TF binding. The following applies: protein concentration: 200 nM; construct: GST-full length. In a few lines:
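Full-length yeast transcription factors or their DNA-binding domains, GST-tagged and expressed with PURExpress, were applied at about 100-200 nM to universal all-10-mer Agilent arrays. These arrays had been made double-stranded by primer extension on fresh or once-stripped slides. Detection used fluorescent anti-GST, normalisation used masliner, and E-scores for ungapped eight-base words pooled with reverse complements came from the Universal PBM Analysis Suite.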
Turning to TAACCTAA, the “PBM E-score” value was found to be 0.117. The result for AACCGGTA reads -0.163; that for ACCGTGTA, 0.0532. Consider CAATCCAC, for which the “PBM E-score” value stood at 0.0198. As for TAAGCTGA, the figure is -0.0181; as for ATCGAATA, -0.0208; as for AGCTGCCT, -0.236. With TAAATTCA, the “PBM E-score” value came out at 0.0731.

On to CCACCAGA, for which the “PBM E-score” value was -0.18. As for GTACATCA, the figure is 0.217. For the sequence TCATATAA, the “PBM E-score” value was found to be 0.128.

For the sequence AGCTTTAG, the “PBM E-score” value was -0.274. CCTTGGGC: the “PBM E-score” value is -0.213. The result for CTCTAGAA reads -0.204; that for GGGAGAGA, 0.0241.

As for GTCGAAGA, the “PBM E-score” value was -0.0269. As to GGGCACAA, the “PBM E-score” value was -0.353. As for ACGGTCCG, the figure is 0.141; as for GCGTGTAA, -0.014; as for CGCCCTAC, -0.105. As to AACAACTC, the “PBM E-score” value was -0.0812. As for CGTAGACG, the figure is 0.179; as for CGACGTAC, 0.322; as for ACGTCGAG, -0.22. For the sequence GAACGTGC, the “PBM E-score” value is -0.1. For GAGAGTGC, the “PBM E-score” value was -0.192.

Take CCCATTAG: the “PBM E-score” value is -0.263. As for ATATGAGA, the figure is 0.0636. As for ACTAATTG, the figure is -0.0772; as for GGCAAACA, -0.106.

CCAGATCC: the “PBM E-score” value is -0.232. The result for CGTGCAAA reads 0.337. For AGCCACTA, the “PBM E-score” value is -0.0236. The result for CGGTCATC reads 0.107; that for AAAATGGG, -0.18; that for CACATTAC, 0.033. For AGCTCGGC, the “PBM E-score” value is -0.0707. In the case of AGCTACTC, the “PBM E-score” value was -0.159. As for GCTACATA, the figure is 0.068.

Regarding CCACGACC, the “PBM E-score” value turned out to be 0.0399.

Take CACTATAG: the “PBM E-score” value worked out at 0.158. Take GAGAAGGA: the “PBM E-score” value is -0.18.

For ATATCCTA, the “PBM E-score” value was 0.0561. On to ACGTGCGG, for which the “PBM E-score” value was found to be 0.135. Consider CTCTTCTA, for which the “PBM E-score” value was -0.157. For GAATCTCA, the “PBM E-score” value was -0.0291.

Regarding CTCAGATC, the “PBM E-score” value stood at 0.0461. Turning to GAAGGTAA, the “PBM E-score” value is 0.0515. On to GGATTTAC, for which the “PBM E-score” value came out at 0.189.

For the sequence CCCCACGG, the “PBM E-score” value came to 0.0587. As for ACGCCGTC, the figure is 0.282; as for AAGAACTG, -0.114. For ACTAATGC, the “PBM E-score” value was -0.0123. The result for ATACGCAC reads 0.183.

Take ATCGTCCA: the “PBM E-score” value worked out at 0.221. As for GGCGTCGA, the figure is 0.0198. In the case of AGCCTGAT, the “PBM E-score” value is -0.0304.

Consider CTCAGACA, for which the “PBM E-score” value was -0.208. In the case of AATCATTG, the “PBM E-score” value was 0.0452. The result for CCGACCTC reads -0.137; that for TGTGGGAA, -0.13; that for CAGGCTCA, -0.112. Consider GGTGATCA, for which the “PBM E-score” value is 0.305. As for AAGCTCCC, the figure is -0.286. For GGTTATGA, the “PBM E-score” value was determined as 0.0101. For the sequence GCCCCGAC, the “PBM E-score” value was -0.225. As for CGTACACC, the “PBM E-score” value was -0.0081. As for GGCTAAGA, the figure is -0.0881; as for AACCAGTT, 0.0799; as for AGCGCCGG, -0.136. Regarding ACGGAGTA, the “PBM E-score” value turned out to be 0.1. As for AGACATTG, the “PBM E-score” value was -0.0332. The result for TACTGAAA reads 0.0645.

Consider AGCCTCGG, for which the “PBM E-score” value was -0.297.

With ACGCGCGT, the “PBM E-score” value came to 0.137. The result for AAAGGGCT reads -0.253. As for AGATGTCA, the figure is 0.205. As for ACGTACAC, the figure is 0.0407; as for TATTATAA, 0.121; as for CCACAGGA, -0.0541.

For the sequence AAGAGCCC, the “PBM E-score” value was -0.0624. The result for TACACCAA reads -0.128; that for CCAAAACG, 0.232; that for ACAGTTTC, 0.0669. As for ATGTCGGC, the figure is 0.0555. As for TACCAAGA, the figure is -0.123. For CCCCAGCA, the “PBM E-score” value was -0.104. As for GCAGTTGA, the “PBM E-score” value is -0.0583. The result for AACTGCCC reads 0.0127. For TCGCAGAA, the “PBM E-score” value was -0.114. For the sequence AGGCCACT, the “PBM E-score” value was -0.22. Regarding AATAGTCT, the “PBM E-score” value was -0.0664. In the case of ATTCCCTA, the “PBM E-score” value is 0.0118. As to AAGCGCCA, the “PBM E-score” value was -0.247. As for CCTTTTCA, the figure is -0.0525; as for CACCCGAC, 0.00856; as for CTGGCGTC, -0.238. As for ACTTCAAT, the figure is 0.0336; as for ATTGTTGC, -0.0414; as for AGTCCAAA, -0.153.

Turning to AAAGCGCA, the “PBM E-score” value was -0.169. The result for CTAAAATA reads 0.161. The result for AAATAATC reads 0.131; that for ACGCGTTC, -0.0896. The result for TGGGCAAA reads -0.166; that for CGACTCCG, -0.231; that for CCACGAAA, 0.216. CCCTCCCG: the “PBM E-score” value is -0.229. Turning to GAGCCATC, the “PBM E-score” value was -0.0884.

On to ACTCGGCC, for which the “PBM E-score” value is -0.00517.
